According to publication PMC4357729:
No constants are given. Whether binding was seen depends on the method and setting. Binding seen in cells or lysates may run through a third protein. Some binding calls cover weakened binding; strength is not graded here.

By UniProt entry, the sequences of proteins in these tests, tags left out.
UniProt Q80U78: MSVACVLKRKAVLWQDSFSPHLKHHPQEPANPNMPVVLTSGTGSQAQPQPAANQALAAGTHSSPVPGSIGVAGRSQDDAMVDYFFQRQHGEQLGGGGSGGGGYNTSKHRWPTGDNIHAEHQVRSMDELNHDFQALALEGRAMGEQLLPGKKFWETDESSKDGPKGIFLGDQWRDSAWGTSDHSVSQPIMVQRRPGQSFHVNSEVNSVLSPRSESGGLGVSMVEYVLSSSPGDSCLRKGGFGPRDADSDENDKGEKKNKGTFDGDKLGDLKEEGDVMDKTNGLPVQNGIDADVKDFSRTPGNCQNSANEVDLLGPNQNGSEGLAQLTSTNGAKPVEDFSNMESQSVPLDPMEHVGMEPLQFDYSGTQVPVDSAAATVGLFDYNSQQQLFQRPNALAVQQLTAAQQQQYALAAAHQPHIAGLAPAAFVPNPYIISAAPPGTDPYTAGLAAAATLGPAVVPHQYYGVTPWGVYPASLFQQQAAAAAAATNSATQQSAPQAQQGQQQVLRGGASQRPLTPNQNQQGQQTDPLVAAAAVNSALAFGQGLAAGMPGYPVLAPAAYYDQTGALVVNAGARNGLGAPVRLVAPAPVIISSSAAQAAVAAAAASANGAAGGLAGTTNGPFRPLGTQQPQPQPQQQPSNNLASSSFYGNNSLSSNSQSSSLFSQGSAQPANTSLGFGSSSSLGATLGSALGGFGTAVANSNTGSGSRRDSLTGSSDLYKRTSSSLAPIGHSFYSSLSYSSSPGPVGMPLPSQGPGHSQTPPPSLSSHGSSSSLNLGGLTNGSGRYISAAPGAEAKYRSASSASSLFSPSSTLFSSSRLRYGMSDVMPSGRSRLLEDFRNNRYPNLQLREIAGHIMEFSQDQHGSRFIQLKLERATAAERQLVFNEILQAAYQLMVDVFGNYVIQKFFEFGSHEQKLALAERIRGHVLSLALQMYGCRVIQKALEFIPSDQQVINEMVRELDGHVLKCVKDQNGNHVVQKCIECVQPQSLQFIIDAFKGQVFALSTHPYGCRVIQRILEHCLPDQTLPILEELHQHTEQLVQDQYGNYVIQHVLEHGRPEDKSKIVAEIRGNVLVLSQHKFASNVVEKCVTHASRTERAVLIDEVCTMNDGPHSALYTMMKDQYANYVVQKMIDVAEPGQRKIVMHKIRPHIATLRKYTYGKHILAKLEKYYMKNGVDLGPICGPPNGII
UniProt Q9UKV8: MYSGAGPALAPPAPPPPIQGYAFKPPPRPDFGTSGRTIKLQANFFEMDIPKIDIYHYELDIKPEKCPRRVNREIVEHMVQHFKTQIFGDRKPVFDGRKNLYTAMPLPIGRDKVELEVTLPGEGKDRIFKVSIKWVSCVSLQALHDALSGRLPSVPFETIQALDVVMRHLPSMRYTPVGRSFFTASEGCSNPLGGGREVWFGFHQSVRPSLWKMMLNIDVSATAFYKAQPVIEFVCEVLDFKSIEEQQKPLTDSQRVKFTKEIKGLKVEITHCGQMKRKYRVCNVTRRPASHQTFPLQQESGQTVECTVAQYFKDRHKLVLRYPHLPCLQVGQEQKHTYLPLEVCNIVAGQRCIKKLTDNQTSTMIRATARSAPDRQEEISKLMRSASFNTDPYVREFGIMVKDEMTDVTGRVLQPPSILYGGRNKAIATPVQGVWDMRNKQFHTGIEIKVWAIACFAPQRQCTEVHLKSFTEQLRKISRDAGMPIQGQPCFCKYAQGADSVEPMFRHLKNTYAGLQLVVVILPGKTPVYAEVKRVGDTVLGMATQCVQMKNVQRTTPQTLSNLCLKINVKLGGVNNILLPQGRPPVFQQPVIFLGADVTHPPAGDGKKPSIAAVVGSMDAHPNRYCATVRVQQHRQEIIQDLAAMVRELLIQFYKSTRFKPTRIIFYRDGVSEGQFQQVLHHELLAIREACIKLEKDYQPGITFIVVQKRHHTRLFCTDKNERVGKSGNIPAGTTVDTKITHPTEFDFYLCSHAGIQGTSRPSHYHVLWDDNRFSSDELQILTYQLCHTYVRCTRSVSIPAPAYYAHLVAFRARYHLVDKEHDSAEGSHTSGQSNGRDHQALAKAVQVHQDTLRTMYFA
UniProt Q8CJG0: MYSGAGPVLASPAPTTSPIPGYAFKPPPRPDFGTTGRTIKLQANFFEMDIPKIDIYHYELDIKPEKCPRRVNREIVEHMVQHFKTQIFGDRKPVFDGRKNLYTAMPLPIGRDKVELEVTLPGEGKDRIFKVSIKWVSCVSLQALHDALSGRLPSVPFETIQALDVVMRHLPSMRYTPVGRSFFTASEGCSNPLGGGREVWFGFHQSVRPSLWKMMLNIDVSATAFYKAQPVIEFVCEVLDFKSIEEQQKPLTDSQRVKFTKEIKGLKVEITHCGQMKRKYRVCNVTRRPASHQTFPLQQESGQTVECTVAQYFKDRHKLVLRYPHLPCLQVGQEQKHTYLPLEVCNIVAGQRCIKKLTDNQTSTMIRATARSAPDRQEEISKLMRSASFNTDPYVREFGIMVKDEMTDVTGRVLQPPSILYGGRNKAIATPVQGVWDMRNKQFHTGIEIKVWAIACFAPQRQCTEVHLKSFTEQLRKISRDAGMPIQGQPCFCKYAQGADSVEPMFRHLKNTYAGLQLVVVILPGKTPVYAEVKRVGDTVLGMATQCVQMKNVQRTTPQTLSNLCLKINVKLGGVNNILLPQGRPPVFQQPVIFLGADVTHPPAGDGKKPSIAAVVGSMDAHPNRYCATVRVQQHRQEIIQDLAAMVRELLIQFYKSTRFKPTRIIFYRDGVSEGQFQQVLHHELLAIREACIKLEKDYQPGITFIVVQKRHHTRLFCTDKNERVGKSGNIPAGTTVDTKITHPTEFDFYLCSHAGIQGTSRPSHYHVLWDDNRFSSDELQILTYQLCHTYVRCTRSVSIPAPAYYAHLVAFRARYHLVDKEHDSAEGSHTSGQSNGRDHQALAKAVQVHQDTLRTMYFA
UniProt Q13049: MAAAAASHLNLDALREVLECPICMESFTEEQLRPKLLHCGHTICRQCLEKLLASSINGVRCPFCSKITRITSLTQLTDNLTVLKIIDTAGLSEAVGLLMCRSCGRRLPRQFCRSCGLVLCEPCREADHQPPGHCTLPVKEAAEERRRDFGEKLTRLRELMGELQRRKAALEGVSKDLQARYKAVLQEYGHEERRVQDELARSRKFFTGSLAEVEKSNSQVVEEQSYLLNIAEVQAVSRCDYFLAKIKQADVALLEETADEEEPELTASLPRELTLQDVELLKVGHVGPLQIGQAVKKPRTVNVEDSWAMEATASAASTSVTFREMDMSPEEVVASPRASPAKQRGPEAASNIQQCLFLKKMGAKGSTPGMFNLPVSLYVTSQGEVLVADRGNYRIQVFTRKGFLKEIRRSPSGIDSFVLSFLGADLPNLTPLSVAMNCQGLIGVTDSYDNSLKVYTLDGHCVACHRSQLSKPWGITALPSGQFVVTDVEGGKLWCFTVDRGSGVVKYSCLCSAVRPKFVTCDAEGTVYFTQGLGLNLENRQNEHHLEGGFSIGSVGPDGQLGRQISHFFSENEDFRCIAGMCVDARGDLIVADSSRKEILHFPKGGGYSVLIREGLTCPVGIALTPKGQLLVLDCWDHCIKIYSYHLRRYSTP

Columns and labels:
[1] = biological target: Pumilio 1 (endogenous, mouse) (mouse (endogenous in NSCs and brain)) (UniProt Q80U78); assay: co-IP; in vivo (mouse brain lysates); which lysate and which precipitating antibody are not told in the text (Supplementary Figure S3d and e)
[2] = biological target: T1, RNA helicase DDX6 (endogenous, mouse) (mouse (endogenous in NSCs and brain)) (UniProt P54823); assay: co-IP; adult mouse brain lysate (2% Triton X-100 in PBS with 120 ug/ml RNAse A and 6 ug/ml DNAse); IP with anti-DDX6 or anti-Ago2, anti-GFP as negative control; western blot
T1 sequence: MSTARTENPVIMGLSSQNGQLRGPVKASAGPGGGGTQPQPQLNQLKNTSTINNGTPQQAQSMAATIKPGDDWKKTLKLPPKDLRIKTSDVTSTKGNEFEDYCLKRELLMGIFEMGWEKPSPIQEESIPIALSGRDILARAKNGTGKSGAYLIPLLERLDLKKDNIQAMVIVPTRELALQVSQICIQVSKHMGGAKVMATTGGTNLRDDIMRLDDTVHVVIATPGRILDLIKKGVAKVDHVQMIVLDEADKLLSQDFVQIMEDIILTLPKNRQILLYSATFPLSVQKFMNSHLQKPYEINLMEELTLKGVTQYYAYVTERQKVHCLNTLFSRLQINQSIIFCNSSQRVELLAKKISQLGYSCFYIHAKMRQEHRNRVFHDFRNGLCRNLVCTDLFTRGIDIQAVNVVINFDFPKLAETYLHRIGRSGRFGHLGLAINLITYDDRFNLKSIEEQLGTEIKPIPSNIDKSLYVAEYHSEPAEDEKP

[3] = biological target: T1, RNA helicase DDX6 (endogenous, mouse) (mouse (endogenous in NSCs and brain)); assay: co-IP; E10.5-E14.5 mouse embryonic brain lysate (2% Triton X-100 in PBS with 120 ug/ml RNAse A and 6 ug/ml DNAse); IP with anti-DDX6, anti-GFP as negative control; beads pre-blocked with BSA; western blot
DDX6-Venus-FLAG [4] = biological target: DDX6-Venus-FLAG (UniProt P26196); assay: co-IP; HEK293T cells lysed 48 h after transfection (2% Triton X-100 in PBS); anti-FLAG antibody, protein-G agarose; western blot
FLAG-tagged Ago1 = FLAG-tagged Ago1 (UniProt Q9UL18); assay: as above
FLAG-tagged Ago2 [5] = biological target: FLAG-tagged Ago2 (UniProt Q9UKV8); assay: as above
FLAG-tagged Ago3 = FLAG-tagged Ago3 (UniProt Q9H9G7); assay: as above
DDX6-Venus-FLAG [6] = biological target: DDX6-Venus-FLAG (UniProt P26196); assay: co-IP; as the co-IPs from transfected HEK293T cells, with digestion of RNA by micrococcal nuclease (600 U, 1 mM CaCl2, 10 min RT) or RNAse A (10 ug, 30 min, 4°C)
FLAG-tagged Ago2 [7] = biological target: FLAG-tagged Ago2 (UniProt Q9UKV8); assay: as above

Measured: binding

Argonaute 2 (endogenous, mouse) (from UniProt Q8CJG0 1-860)
binds: [1] | [2] | [3]

TRIM32 (in the co-immunoprecipitations from transfected HEK293T cells) (from UniProt Q13049 1-653)
not listed: [1] | [2] | [3]
binds: all other assays above
